Measurements reported in PubChem BioAssay AID504327 (National Center for Advancing Translational Sciences (NCATS), 2011).
Out of some 390,000 compounds screened, about 820 (0.21%) were called active. Inconclusive means that the source gave no clear call. Such entries were picked first, then a sample of the others. Calls follow the shape of the dose curve; as a rule, active = well fitted inhibition curve with a large enough effect; inconclusive = small, poorly fitted or top-dose-only effect, or another doubt; inactive = no such curve, though single readings can be large or run the other way. Potencies beside an inconclusive call are fits to weak or partial responses and may not hold up.

The chains behind the UniProt entries cited, without tags or fusion partners.
UniProt Q92830, whole entry, looked up: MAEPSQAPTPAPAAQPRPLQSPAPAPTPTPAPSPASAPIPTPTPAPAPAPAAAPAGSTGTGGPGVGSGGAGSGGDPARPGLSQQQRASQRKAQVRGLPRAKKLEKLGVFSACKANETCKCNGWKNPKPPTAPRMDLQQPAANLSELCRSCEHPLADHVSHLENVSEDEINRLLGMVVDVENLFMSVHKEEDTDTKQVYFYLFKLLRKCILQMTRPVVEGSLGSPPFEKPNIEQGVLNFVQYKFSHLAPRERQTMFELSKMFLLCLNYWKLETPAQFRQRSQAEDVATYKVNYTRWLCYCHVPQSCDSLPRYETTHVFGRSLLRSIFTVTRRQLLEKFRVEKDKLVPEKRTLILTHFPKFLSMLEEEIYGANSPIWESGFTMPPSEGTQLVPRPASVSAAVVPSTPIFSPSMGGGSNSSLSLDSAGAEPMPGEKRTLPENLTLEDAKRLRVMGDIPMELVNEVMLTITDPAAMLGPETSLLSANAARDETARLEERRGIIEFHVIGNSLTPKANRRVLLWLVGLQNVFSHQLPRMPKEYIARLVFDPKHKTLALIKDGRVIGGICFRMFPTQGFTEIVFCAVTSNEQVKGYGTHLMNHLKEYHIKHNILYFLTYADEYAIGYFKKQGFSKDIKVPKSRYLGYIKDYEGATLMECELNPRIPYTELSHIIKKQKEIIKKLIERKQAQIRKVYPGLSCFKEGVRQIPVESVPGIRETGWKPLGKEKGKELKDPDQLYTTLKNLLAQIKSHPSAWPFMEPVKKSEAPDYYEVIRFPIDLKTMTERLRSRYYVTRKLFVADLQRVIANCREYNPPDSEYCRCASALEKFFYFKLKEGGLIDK

Biological target: Histone acetyltransferase KAT2A (Homo sapiens) (UniProt Q92830)
Assay: qHTS Assay for Inhibitors of GCN5L2
Settings: GCN5L2 HAT assay, ThioGlo1 CoA-SH fluorescence; series mostly up to 58.9 µM
Procedure, shortened: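 ThioGlo1-coupled HAT assay: 20nM GCN5L2, 70uM acetyl-CoA, 75uM H3(1-25) peptide, pH 7.5. Fluorescence read at 340/540nm at start and after 20 min at room temperature.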
Potency is read from the fitted curve at half-maximal effect.

| SMILES | Potency |
| --- | --- |
| Cc1nnc(SCc2ccccc2)[nH]c1=O | inconclusive: 25.1 µM [inhibitor, single point] |
| Cc1csc2nc(CNC(=O)c3ccco3)cn12 | inconclusive: 2 µM [inhibitor, partial curve] |
| COc1ccc(-c2cc(C(F)(F)F)nc(SCCC(=O)Nc3ccc(OC)c(OC)c3)n2)cc1 | inactive |
| COCc1ccc(CN2CCCC(CO)(Cc3cccc(Cl)c3)C2)o1 (centres undefined) | inconclusive: 39.8 µM [inhibitor, single point] |
| O=C(O)CCC(=O)Nc1cccc(-c2nc3ccccc3o2)c1 | inconclusive: 0.631 µM [inhibitor, single point] |
| Cc1nnc(SCC(=O)Nc2sccc2C#N)s1 | inconclusive: 17.8 µM [inhibitor, partial curve] |
| Cc1ccc(/C=C2/C(=N)N3N=C(CC(=O)N4CCCC4)SC3=NC2=O)o1 | inconclusive: 5.01 µM [inhibitor, full curve] |
| Cc1ccc(NC(=O)COC(=O)c2ccccc2F)cc1S(=O)(=O)N1CCCCC1 | inactive |
| O=C(NNS(=O)(=O)c1ccc(F)cc1)C1CCN(S(=O)(=O)c2ccccc2)CC1 | inconclusive: 8.91 µM [inhibitor, single point] |
| O=C1CN(C(=O)COC(=O)C2=COCCO2)c2ccccc2N1 | inconclusive: 39.8 µM [inhibitor, single point] |
| CCCc1cc(=O)oc2c(CN3CCCC3)c(O)c(Cl)cc12 | inconclusive: 28.2 µM [inhibitor, single point] |
| COc1cc(-c2nc3ccccn3c2NCc2ccccc2)ccc1SC1CCCCC1 | inconclusive: 28.2 µM [inhibitor, single point] |
| O=C(c1cc(-c2ccco2)nn1-c1cccc(Cl)c1)N1CCCCC1 | inactive |
| CC(=O)Nc1nc2cc(N)ccc2s1 | inactive |
| O=C(Nc1ccc(S(=O)(=O)Nc2ncccn2)cc1)c1ccc(N2CCCC2=O)cc1 | inconclusive: 0.562 µM [inhibitor, full curve, poor fit] |
| Nc1ccc(-c2nc(-c3ccccc3)nc3ccccc23)cc1 | inconclusive: 1.26 µM [inhibitor, full curve] |
| O=Cc1ccc(C(=O)OCC(=O)NC(=O)Nc2ccccc2F)cc1 | inactive |
| O=S(=O)(Nc1nc(-c2ccccc2)cs1)c1cc(Cl)ccc1Cl | inconclusive: 28.2 µM [inhibitor, single point] |
| CCc1ccc(NC(=O)CSc2nnc3[nH]c(=O)cc(-c4ccccc4)n23)cc1 | inconclusive: 28.2 µM [inhibitor, partial curve, poor fit] |
| c1coc(-c2nc(-c3ccco3)c(-c3ccco3)nc2-c2ccco2)c1 | inconclusive: 20 µM [inhibitor, single point] |
| Cc1cccc(N2CCN(C(=O)c3nn(C)c4c3CS(=O)(=O)c3ccccc3-4)CC2)c1C | inactive |
| O=C(O)COCC(=O)N1CCc2c([nH]c3ccccc23)C1C(F)(F)F (centres undefined) | inconclusive: 5.01 µM [inhibitor, single point] |
| N=C1/C(=C\c2ccc(OC(=O)c3ccccc3)cc2)C(=O)N=C2SC(N3CCOCC3)=NN12 | inconclusive: 0.891 µM [inhibitor, single point] |

2 of the compounds above, in CSV form:
SMILES,Potency
CCCc1cc(=O)oc2c(CN3CCCC3)c(O)c(Cl)cc12,"inconclusive: 28.2 µM [inhibitor, single point]"
COc1cc(-c2nc3ccccn3c2NCc2ccccc2)ccc1SC1CCCCC1,"inconclusive: 28.2 µM [inhibitor, single point]"

(continued)

| SMILES | Potency |
| --- | --- |
| O=C(CC1C(=O)NCCN1Cc1c(F)cccc1Cl)NCCCN1CCCC1=O (centres undefined) | inconclusive: 14.1 µM [inhibitor, partial curve, poor fit] |
| Cc1ccc(Cn2c(C)nc3c(c2=O)c2nc4ccccc4nc2n3Cc2ccco2)cc1 | inconclusive: 39.8 µM [inhibitor, single point] |
| COc1cc2[nH]c(=O)n(Cc3ccc(C(=O)N4CCN(c5ccc(Cl)cc5)CC4)cc3)c(=O)c2cc1OC | inactive |
| CCN(Cc1ccccc1)C(=O)c1cc(-c2ccccc2)n[nH]1 | inactive |
| CC(=O)N1CC(C)Sc2ccc(S(=O)(=O)NCc3ccccc3Cl)cc21 (centres undefined) | inconclusive: 3.98 µM [inhibitor, full curve, poor fit] |
| O=C1COc2ccc(NC(=O)c3ccccc3C(=O)O)cc2N1 | inconclusive: 22.4 µM [inhibitor, single point] |
| Nc1cc(Cl)ccc1Oc1ccccc1 | inconclusive: 3.55 µM [inhibitor, single point] |
| CC(C)c1ccc(Nc2nnc(SCC(=O)c3nnc(-c4ccccc4)o3)s2)cc1 | inconclusive: 39.8 µM [inhibitor, single point] |
| CCOC(=O)c1cnc(SSc2ncc(C(=O)OCC)c(N)n2)nc1N | inconclusive: 25.1 µM [inhibitor, single point] |
| N=c1oc2cc(O)ccc2cc1C(=O)Nc1nc2ccccc2s1 | inconclusive: 25.1 µM [inhibitor, partial curve] |
| COc1ccc(OCC(=O)Nc2ccc(S(=O)(=O)Nc3cc(C)on3)cc2)cc1 | inconclusive: 2.51 µM [inhibitor, full curve, poor fit] |
| O=C(COc1ccccc1/C=C1\SC(=S)NC1=O)Nc1ccc(F)cc1 | inactive |
| CC(=O)N1CCC[C@@]2(CCN(Cc3ccc(C#N)cc3)C2)C1 | inactive |
| CCOC(=O)c1ccc2c(c1)nc(SCC(=O)c1cc3ccccc3o1)n2CC | inactive |
| COc1ccc(C(=O)NCS(=O)(=O)c2ccc(C)cc2)cc1 | inconclusive: 39.8 µM [inhibitor, partial curve, poor fit] |
| S=c1ccss1 | active: 25.1 µM |
| c1ccc2c(c1)CN1CCCC1=N2 | inactive |
| C=CCn1c(NC(=O)c2ccc(Br)o2)c(C(=O)OCC)sc1=S | inconclusive: 31.6 µM [inhibitor, single point] |
| Cc1ccc(CNC(=O)c2oc3ccc(S(=O)(=O)N4CCOCC4)cc3c2C)cc1 | inactive |
| COc1ccc(C(CNC(=O)c2ccc(F)cc2)N2CCCC2)cc1 (centres undefined) | inactive |
| COCCNC(=O)c1cc2cc(Br)cc(Br)c2oc1=O | inconclusive: 0.708 µM [inhibitor, single point] |
| O=[N+]([O-])c1ccc(Sc2nccn2Cc2ccccc2)c([N+](=O)[O-])c1 | inactive |
| CCCCCCCCCCCCCCCCCCc1ccc(C(=O)/C=C\C(=O)O)cc1 | active: 2.82 µM |

| SMILES | Potency |
| --- | --- |
| Cc1ccc(C)c(NC(=S)NC(NC(=O)Cc2cccc3ccccc23)C(Cl)(Cl)Cl)c1 (centres undefined) | inconclusive: 39.8 µM [inhibitor, single point] |
| CC(C)C[C@H](NC(=O)OC(C)(C)C)c1nnc(SCc2cccc(F)c2)o1 | inconclusive: 8.91 µM [inhibitor, full curve, poor fit] |
| O=C(O)Cc1sc(-c2ccccc2Cl)nc1-c1ccccc1 | inactive |
| Cc1ccc(/C=C2\SC(N3CCN(C(c4ccccc4)c4ccccc4)CC3)=NC2=O)o1 | inconclusive: 22.4 µM [inhibitor, single point] |
| COc1ccc2oc(C(=O)Nc3ccc(N4CCOCC4)cc3)c(C)c2c1 | inactive |
| Cc1ccc2scc(N3CCC(C)CC3)c(=O)c2c1 | inconclusive: 39.8 µM [inhibitor, single point] |
| CCOc1ccccc1NC(=O)Cn1nnc(C(=O)NCc2ccco2)c1N | inconclusive: 39.8 µM [inhibitor, single point] |
| CCOC(=O)C1CCC(CN(Cc2ccc(Cl)cc2)S(=O)(=O)c2cc(Cl)cc(Cl)c2)CC1 (centres undefined) | inactive |
| CCCCN(CCCC)c1cc(C)nc(-c2ccccc2O)n1 | inconclusive: 39.8 µM [inhibitor, single point] |
| N#CC1=C(SCC(=O)c2cc3ccccc3oc2=O)NC(=O)C(C#N)C12CCCC2 (centres undefined) | inconclusive: 31.6 µM [inhibitor, single point] |
| COC(=O)C(CCSC)NC(=O)C12CC3CC(CC(C3)C1)C2 (centres undefined) | inconclusive: 39.8 µM [inhibitor, single point] |
| CC(Oc1ccccc1)C(=O)Nc1ccc(OCc2cc(=O)n3ccsc3n2)cc1 (centres undefined) | inactive |
| COc1ccc(CCCNC(=O)C2CCC(=O)N(Cc3ccc(Cl)cc3)C2)cc1 (centres undefined) | inconclusive: 4.47 µM [inhibitor, single point] |
| C=CCC[C@H](Cc1ccc(F)cc1)C(=O)OC[C@H](Cc1c[nH]c2ccccc12)NC(=O)[C@@H](CC=C)CC(=O)N(CCO)Cc1ccccc1 | inactive |
| CN1CCCc2cc(C#N)c(=O)[nH]c21 | inconclusive: 39.8 µM [inhibitor, single point] |
| CC1CCCCC1NC(=O)Cn1cnc2sccc2c1=O (centres undefined) | inactive |
| CCCC(CCC)=NNc1ccc(S(=O)(=O)Nc2ccccc2OC)cc1[N+](=O)[O-] | inactive |
| Cn1c(-[n+]2c(-c3ccccc3)cc(-c3ccccc3)cc2-c2ccccc2)nc2cc([N+](=O)[O-])ccc21 | inconclusive: 25.1 µM [inhibitor, partial curve, poor fit] |
| COc1cc(/C=N\Nc2ccc([N+](=O)[O-])cc2)ccc1OCC(=O)Nc1ccc(C)c(C)c1 | inconclusive: 3.98 µM [inhibitor, single point] |
| O=C(Nc1cccc(O)c1)c1cc2nc(-c3ccc(Br)cc3)cc(C(F)(F)F)n2n1 | inconclusive: 8.91 µM [inhibitor, partial curve, poor fit] |
| CCN1C(=O)[C@H]2[C@@H](c3ccc(-c4ccc(OC)cc4)cc3)N3CCCC[C@@]3(C(=O)OC)[C@H]2C1=O | inactive |
| O=c1c(-c2ccccc2)nc2cnc(N3CCOCC3)nc2n1CCc1ccccc1 | inconclusive: 28.2 µM [inhibitor, partial curve] |
| CNc1nc(-c2ccc([N+](=O)[O-])cc2)cs1 | inconclusive: 0.891 µM [inhibitor, single point] |

Entries above that contain two or more sulfur atoms, in the order listed:

| SMILES | Potency |
| --- | --- |
| Cc1nnc(SCC(=O)Nc2sccc2C#N)s1 | inconclusive: 17.8 µM [inhibitor, partial curve] |
| O=C(NNS(=O)(=O)c1ccc(F)cc1)C1CCN(S(=O)(=O)c2ccccc2)CC1 | inconclusive: 8.91 µM [inhibitor, single point] |
| O=S(=O)(Nc1nc(-c2ccccc2)cs1)c1cc(Cl)ccc1Cl | inconclusive: 28.2 µM [inhibitor, single point] |
| CC(=O)N1CC(C)Sc2ccc(S(=O)(=O)NCc3ccccc3Cl)cc21 (centres undefined) | inconclusive: 3.98 µM [inhibitor, full curve, poor fit] |
| CC(C)c1ccc(Nc2nnc(SCC(=O)c3nnc(-c4ccccc4)o3)s2)cc1 | inconclusive: 39.8 µM [inhibitor, single point] |
| CCOC(=O)c1cnc(SSc2ncc(C(=O)OCC)c(N)n2)nc1N | inconclusive: 25.1 µM [inhibitor, single point] |
| O=C(COc1ccccc1/C=C1\SC(=S)NC1=O)Nc1ccc(F)cc1 | inactive |
| S=c1ccss1 | active: 25.1 µM |
| C=CCn1c(NC(=O)c2ccc(Br)o2)c(C(=O)OCC)sc1=S | inconclusive: 31.6 µM [inhibitor, single point] |
